Data published in publication PMC6722131, “High-throughput-compatible assays using a genetically-encoded calcium indicator” (Scientific Reports, 2019).

Test system: T1, Gq/11-coupled muscarinic acetylcholine receptors (mAChR) endogenous to 293-F cells
T1 construct: gene CHRM3
Assay: FLIPR calcium release, stable GCaMP6s
Format: cell-based
Conditions: antagonist; acetylcholine challenge (30 nM in Figure 4 legend), 30 min pre-incubation, 2 mM Ca2+, pH 7.4
Text: FLIPR calcium release, stable GCaMP6s on Gq/11-coupled muscarinic acetylcholine receptors (mAChR) endogenous to 293-F cells

Question: For `CN1CCN(CC(=O)N2c3ccccc3C(=O)Nc3cccnc32)CC1` [pirenzepine], which “GCaMP6s pEC50” value is on record?
Answer: Its value is 7.59 ± 0.04 -log10(M).
